Measurements reported in PubChem BioAssay AID188 (DTP/NCI, 2004).
Values are animals surviving of animals treated; these mice carried no tumour. Counts of survivors are from the toxicity check (mostly the fifth day) where no day follows; animals may have died later. Schedule codes are those of the source, read here as Q, the interval in days (D) or hours (H), X, the number of doses. Brackets with × give the number of equal values in this list. Some entries were tested several times; the results are listed from low to high.

Test system: CD2F1 mice, nontumored, toxicity/survival
Assay: NCI In Vivo Anticancer Drug Screen. Data for tumor model Nontumored Animals (Toxicity Test) in CD2F1 (CDF1) mice

O=P1(N(CCCl)CCCl)NCCCO1 (stereo not drawn)
survivor count (dose: 3.9 mg/kg/injection, schedule: Q03HX032 (ip), vehicle: saline): 10 of 10
survivor count (dose: 5.8 mg/kg/injection, schedule: Q03HX032 (ip), vehicle: saline): 10 of 10
survivor count (dose: 8.6 mg/kg/injection, schedule: Q03HX032 (ip), vehicle: saline): 9 of 9
survivor count (dose: 12.0 mg/kg/injection, schedule: Q01DX015 (ip), vehicle: saline): 10 of 10
survivor count (dose: 13.0 mg/kg/injection, schedule: Q03HX032 (ip), vehicle: saline): 10 of 10
survivor count (dose: 16.2 mg/kg/injection, schedule: Q10HX004 (ip), vehicle: saline): 5 of 5
survivor count (dose: 18.0 mg/kg/injection, schedule: Q01DX015 (ip), vehicle: saline): 10 of 10
survivor count (dose: 20.0 mg/kg/injection, schedule: Q03HX032 (ip), vehicle: saline): 10 of 10
survivor count (dose: 22.0 mg/kg/injection, schedule: Q02DX008 (ip), vehicle: saline): 10 of 10
survivor count (dose: 26.0 mg/kg/injection, schedule: Q08DX002 (ip), vehicle: saline): 5 of 5
survivor count (dose: 27.0 mg/kg/injection, schedule: Q01DX015 (ip), vehicle: saline): 10 of 10
survivor count (dose: 27.0 mg/kg/injection, schedule: Q10HX004 (ip), vehicle: saline): 5 of 5
survivor count (dose: 30.0 mg/kg/injection, schedule: Q03HX032 (ip), vehicle: saline): 10 of 10
survivor count (dose: 33.0 mg/kg/injection, schedule: Q02DX008 (ip), vehicle: saline): 10 of 10
survivor count (dose: 36.0 mg/kg/injection, schedule: Q04DX004 (ip), vehicle: saline): 9 of 9
survivor count (dose: 40.0 mg/kg/injection, schedule: Q01DX015 (ip), vehicle: saline): 10 of 10
survivor count (dose: 43.0 mg/kg/injection, schedule: Q08DX002 (ip), vehicle: saline): 5 of 5
survivor count (dose: 44.0 mg/kg/injection, schedule: Q02DX008 (ip), vehicle: saline): 10 of 10
survivor count (dose: 45.0 mg/kg/injection, schedule: Q10HX004 (ip), vehicle: saline): 5 of 5
survivor count (dose: 54.0 mg/kg/injection, schedule: Q04DX004 (ip), vehicle: saline): 10 of 10
survivor count (dose: 60.0 mg/kg/injection, schedule: Q01DX015 (ip), vehicle: saline): 9 of 9
survivor count (dose: 67.0 mg/kg/injection, schedule: Q02DX008 (ip), vehicle: saline): 10 of 10
survivor count (dose: 72.0 mg/kg/injection, schedule: Q08DX002 (ip), vehicle: saline): 5 of 5
survivor count (dose: 80.0 mg/kg/injection, schedule: Q04DX004 (ip), vehicle: saline): 10 of 10
survivor count (dose: 90.0 mg/kg/injection, schedule: Q01DX015 (ip), vehicle: saline): 10 of 10
survivor count (dose: 100.0 mg/kg/injection, schedule: Q02DX008 (ip), vehicle: saline): 10 of 10
survivor count (dose: 120.0 mg/kg/injection, schedule: Q04DX004 (ip), vehicle: saline): 10 of 10
survivor count (dose: 120.0 mg/kg/injection, schedule: Q08DX002 (ip), vehicle: saline): 5 of 5
survivor count (dose: 133.0 mg/kg/injection, schedule: Q01DX001 (ip), vehicle: saline): 10 of 10 (2×)
survivor count (dose: 135.0 mg/kg/injection, schedule: Q01DX015 (ip), vehicle: saline): 10 of 10
survivor count (dose: 150.0 mg/kg/injection, schedule: Q01DX001 (ip), vehicle: saline): 10 of 10
survivor count (dose: 180.0 mg/kg/injection, schedule: Q01DX001 (ip), vehicle: saline): 4 of 4
survivor count (dose: 180.0 mg/kg/injection, schedule: Q04DX004 (ip), vehicle: saline): 10 of 10
survivor count (dose: 200.0 mg/kg/injection, schedule: Q01DX001 (ip), vehicle: saline): 10 of 10 (2×) and 4 of 4
survivor count (dose: 200.0 mg/kg/injection, schedule: Q08DX002 (ip), vehicle: saline): 5 of 5
survivor count (dose: 250.0 mg/kg/injection, schedule: Q01DX001 (ip), vehicle: saline): 10 of 10
survivor count (dose: 270.0 mg/kg/injection, schedule: Q04DX004 (ip), vehicle: saline): 10 of 10
survivor count (dose: 300.0 mg/kg/injection, schedule: Q01DX001 (ip), vehicle: saline): 10 of 10 (2×) and 4 of 4
survivor count (dose: 333.0 mg/kg/injection, schedule: Q08DX002 (ip), vehicle: saline): 5 of 5
survivor count (dose: 350.0 mg/kg/injection, schedule: Q01DX001 (ip), vehicle: saline): 10 of 10
survivor count (dose: 400.0 mg/kg/injection, schedule: Q01DX001 (ip), vehicle: saline): 9 of 10 and 4 of 4
survivor count (dose: 450.0 mg/kg/injection, schedule: Q01DX001 (ip), vehicle: saline): 7 of 10
survivor count (dose: 500.0 mg/kg/injection, schedule: Q01DX001 (ip), vehicle: saline): 4 of 4

OC(CBr)C(O)C(O)C(O)CBr (stereo not drawn)
survivor count (dose: 8.0 mg/kg/injection, schedule: Q03HX024 (ip), vehicle: Klucel (hydroxypropylcellulose) (HPC)): 8 of 8
survivor count (dose: 16.0 mg/kg/injection, schedule: Q03HX008 (ip), vehicle: Klucel (hydroxypropylcellulose) (HPC)): 8 of 8
survivor count (dose: 16.0 mg/kg/injection, schedule: Q03HX016 (ip), vehicle: Klucel (hydroxypropylcellulose) (HPC)): 8 of 8
survivor count (dose: 16.0 mg/kg/injection, schedule: Q03HX024 (ip), vehicle: Klucel (hydroxypropylcellulose) (HPC)): 7 of 8
survivor count (dose: 32.0 mg/kg/injection, schedule: Q01DX009 (ip), vehicle: Klucel (hydroxypropylcellulose) (HPC)): 8 of 8
survivor count (dose: 32.0 mg/kg/injection, schedule: Q03HX008 (ip), vehicle: Klucel (hydroxypropylcellulose) (HPC)): 8 of 8
survivor count (dose: 32.0 mg/kg/injection, schedule: Q03HX016 (ip), vehicle: Klucel (hydroxypropylcellulose) (HPC)): 8 of 8
survivor count (dose: 32.0 mg/kg/injection, schedule: Q03HX024 (ip), vehicle: Klucel (hydroxypropylcellulose) (HPC)): 8 of 8
survivor count (dose: 64.0 mg/kg/injection, schedule: Q01DX009 (ip), vehicle: Klucel (hydroxypropylcellulose) (HPC)): 8 of 8
survivor count (dose: 64.0 mg/kg/injection, schedule: Q03HX008 (ip), vehicle: Klucel (hydroxypropylcellulose) (HPC)): 8 of 8
survivor count (dose: 64.0 mg/kg/injection, schedule: Q03HX016 (ip), vehicle: Klucel (hydroxypropylcellulose) (HPC)): 8 of 8
survivor count (dose: 64.0 mg/kg/injection, schedule: Q03HX024 (ip), vehicle: Klucel (hydroxypropylcellulose) (HPC)): 8 of 8
survivor count (dose: 64.0 mg/kg/injection, schedule: Q04DX003 (ip), vehicle: Klucel (hydroxypropylcellulose) (HPC)): 8 of 8
survivor count (dose: 128.0 mg/kg/injection, schedule: Q01DX001 (ip), vehicle: Klucel (hydroxypropylcellulose) (HPC)): 8 of 8
survivor count (dose: 128.0 mg/kg/injection, schedule: Q01DX009 (ip), vehicle: Klucel (hydroxypropylcellulose) (HPC)): 8 of 8
survivor count (dose: 128.0 mg/kg/injection, schedule: Q03HX008 (ip), vehicle: Klucel (hydroxypropylcellulose) (HPC)): 8 of 8
survivor count (dose: 128.0 mg/kg/injection, schedule: Q03HX016 (ip), vehicle: Klucel (hydroxypropylcellulose) (HPC)): 8 of 8
survivor count (dose: 128.0 mg/kg/injection, schedule: Q03HX024 (ip), vehicle: Klucel (hydroxypropylcellulose) (HPC)): 8 of 8
survivor count (dose: 128.0 mg/kg/injection, schedule: Q04DX003 (ip), vehicle: Klucel (hydroxypropylcellulose) (HPC)): 8 of 8
survivor count (dose: 128.0 mg/kg/injection, schedule: Q08DX002 (ip), vehicle: Klucel (hydroxypropylcellulose) (HPC)): 8 of 8
survivor count (dose: 256.0 mg/kg/injection, schedule: Q01DX001 (ip), vehicle: Klucel (hydroxypropylcellulose) (HPC)): 8 of 8
survivor count (dose: 256.0 mg/kg/injection, schedule: Q01DX009 (ip), vehicle: Klucel (hydroxypropylcellulose) (HPC)): 8 of 8
survivor count (dose: 256.0 mg/kg/injection, schedule: Q03HX008 (ip), vehicle: Klucel (hydroxypropylcellulose) (HPC)): 8 of 8
survivor count (dose: 256.0 mg/kg/injection, schedule: Q03HX016 (ip), vehicle: Klucel (hydroxypropylcellulose) (HPC)): 7 of 8
survivor count (dose: 256.0 mg/kg/injection, schedule: Q04DX003 (ip), vehicle: Klucel (hydroxypropylcellulose) (HPC)): 8 of 8
survivor count (dose: 256.0 mg/kg/injection, schedule: Q08DX002 (ip), vehicle: Klucel (hydroxypropylcellulose) (HPC)): 8 of 8
survivor count (dose: 512.0 mg/kg/injection, schedule: Q01DX001 (ip), vehicle: Klucel (hydroxypropylcellulose) (HPC)): 8 of 8
survivor count (dose: 512.0 mg/kg/injection, schedule: Q01DX009 (ip), vehicle: Klucel (hydroxypropylcellulose) (HPC)): 8 of 8
survivor count (dose: 512.0 mg/kg/injection, schedule: Q04DX003 (ip), vehicle: Klucel (hydroxypropylcellulose) (HPC)): 8 of 8
survivor count (dose: 512.0 mg/kg/injection, schedule: Q08DX002 (ip), vehicle: Klucel (hydroxypropylcellulose) (HPC)): 8 of 8
survivor count (dose: 1024.0 mg/kg/injection, schedule: Q01DX001 (ip), vehicle: Klucel (hydroxypropylcellulose) (HPC)): 8 of 8
survivor count (dose: 1024.0 mg/kg/injection, schedule: Q04DX003 (ip), vehicle: Klucel (hydroxypropylcellulose) (HPC)): 8 of 8
survivor count (dose: 1024.0 mg/kg/injection, schedule: Q08DX002 (ip), vehicle: Klucel (hydroxypropylcellulose) (HPC)): 8 of 8
survivor count (dose: 2048.0 mg/kg/injection, schedule: Q01DX001 (ip), vehicle: Klucel (hydroxypropylcellulose) (HPC)): 7 of 8
survivor count (dose: 2048.0 mg/kg/injection, schedule: Q08DX002 (ip), vehicle: Klucel (hydroxypropylcellulose) (HPC)): 7 of 8
